Experimental data as given in patent US8980569B2, “Chronic lymphocytic leukemia prognosis and treatment” (Duke University, priority 2007, dated 2015).

System: CLL cells
Experiment: cells
Conditions: Homo sapiens, CLL cell, 72 h, read-out: effective dose for 50% killing (ED50)

Work on `CC/C(=C(\c1ccccc1)c1ccc(OCCN(C)C)cc1)c1ccccc1` [TAM, tamoxifen] yielded an EC50 of 6.5 µM.
